Results are given in words; binding and its absence hold for the method and conditions named. Some entries that bind do so weakly or less than the wild type.

By UniProt entry, the sequences of proteins in these tests, tags left out. Where a name states a change or a piece, a line headed by the entry shows the natural chain unless it says otherwise. Residues count along the entry.
UniProt P13688: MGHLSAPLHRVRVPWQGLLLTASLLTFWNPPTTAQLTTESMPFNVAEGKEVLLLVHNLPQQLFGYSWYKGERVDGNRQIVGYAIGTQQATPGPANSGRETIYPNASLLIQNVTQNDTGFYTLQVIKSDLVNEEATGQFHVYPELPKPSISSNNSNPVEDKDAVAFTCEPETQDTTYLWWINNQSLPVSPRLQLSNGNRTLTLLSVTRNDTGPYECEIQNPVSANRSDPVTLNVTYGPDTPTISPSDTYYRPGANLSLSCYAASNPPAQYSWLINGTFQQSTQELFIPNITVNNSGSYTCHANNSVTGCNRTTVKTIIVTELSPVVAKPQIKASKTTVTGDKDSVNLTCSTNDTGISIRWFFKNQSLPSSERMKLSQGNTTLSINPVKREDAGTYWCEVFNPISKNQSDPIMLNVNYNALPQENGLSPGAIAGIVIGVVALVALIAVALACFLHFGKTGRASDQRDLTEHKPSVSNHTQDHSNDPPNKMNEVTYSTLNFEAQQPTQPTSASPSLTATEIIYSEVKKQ
UniProt P40198, residues 35-155: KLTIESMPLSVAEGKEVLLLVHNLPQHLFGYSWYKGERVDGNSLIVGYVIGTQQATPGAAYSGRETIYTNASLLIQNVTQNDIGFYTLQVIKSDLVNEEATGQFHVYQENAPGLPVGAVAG

The target of test [1] is CEACAM1 on transfected HeLa cells (Homo sapiens (Human)) (UniProt P13688). Briefly: flow cytometry, transfected HeLa.
In test [2] the target is human GST-CEACAM1 (human) (UniProt P13688). Briefly: blocking ELISA: plate-coated human TIM-3 IgV domain (3 µg/mL), hCEACAM1-GST (4 µM) added with antibody at 0-250 nM; bound CEACAM1-GST detected with anti-GST antibody, OD 450 nm; blocked ligand: TIM-3.
Test [3] has as its target tagless CEACAM1 expressed in E. coli (crystal structure, PDB 7N3W) (human) (UniProt P13688). Briefly: co-crystal structure.
For test [4], the target named is CEACAM1 (Sino Biological) (human) (UniProt P13688). Briefly: SPR single-cycle.
The target in test [5] is CEACAM3 (Sino Biological) (human) (UniProt P40198). Briefly: binding ELISA on plate-coated CEACAM (0.5 µg/mL); antibody at 1.67, 0.062 and 0.0069 µg/mL; signal as % of parent IgG on CEACAM1 at 1.67 µg/mL on the same plate.
The target is the same in test [6]. Briefly: SPR single-cycle, IgG on Protein A.

B1: Parent VH/L1 (antibody, IgG4, V domains shown)
VH: EVQLLESGGGLVQPGGSLRLSCAASGFSFSDYYLYWVRQAPGKGLEWVATISVGGGQTSYADSVKGRFTISRDNSKNTLYLQMNSLRAEDTAMYYCTRGLYYGPAWFAYWGQGTLVTVSS
VL: DIVMTQSPDSLAVSLGERATINCKSSQSLLNSANQKNYLAWYQQKPGQPPKLLIYFASTRESGVPDRFSGSGSGTDFTLTISSLQAEDVAVYYCQSHYPFYYTFGGGTKVEIK
In the case of B1, the binding entry in test [1] and in test [2] was “binds” each time.

B2: He9/L17 (antibody, IgG4, V domains shown)
VH: EVQLLESGGGLVQPGGSLRLSCAASGFSFSDYYLYWVRQAPGKGLEWVATISVGGGQTSYADSVKGRFTISRDNSKNTLYLQMNSLRAEDTAMYYCARAMYYGPAWFAYWGQGTLVTVSS
VL: DIVMTQSPDSLAVSLGERATINCKSSQSLLNSANQKNYLAWYQQKPGQPPKLLIYFASTRESGVPDRFSGSGSGTDFTLTISSLQAEDVAVYYCQSHYPYPYTFGGGTKVEIK
Take B2: in test [1], the binding result was “binds”.

B3: He9/L6 (antibody, IgG4, V domains shown)
VH: EVQLLESGGGLVQPGGSLRLSCAASGFSFSDYYLYWVRQAPGKGLEWVATISVGGGQTSYADSVKGRFTISRDNSKNTLYLQMNSLRAEDTAMYYCARAMYYGPAWFAYWGQGTLVTVSS
VL: DIVMTQSPDSLAVSLGERATINCKSSQSLLNSANQKNYLAWYQQKPGQPPKLLIYFASTRESGVPDRFSGSGSGTDFTLTISSLQAEDVAVYYCQSHYPFSFTFGGGTKVEIK
For the molecule B3, in test [1], the binding entry is recorded as “binds”.

B4: He14/L1 Fab (Fab, V domains shown)
VH: EVQLLESGGGLVQPGGSLRLSCAASGFSFSDYYLYWVRQAPGKGLEWVATISVGGGQTSYADSVKGRFTISRDNSKNTLYLQMNSLRAEDTAMYYCTRGLYYGPSWVAYWGQGTLVTVSS
VL: DIVMTQSPDSLAVSLGERATINCKSSQSLLNSANQKNYLAWYQQKPGQPPKLLIYFASTRESGVPDRFSGSGSGTDFTLTISSLQAEDVAVYYCQSHYPFYYTFGGGTKVEIK
B4: the binding entry in test [3] is on record as “binds”.

B5: He17/L1 (antibody, IgG4, V domains shown)
VH: EVQLLESGGGLVQPGGSLRLSCAASGFSFSDYYLYWVRQAPGKGLEWVATISVGGGQTSYADSVKGRFTISRDNSKNTLYLQMNSLRAEDTAMYYCTRARTYGPAWFAYWGQGTLVTVSS
VL: DIVMTQSPDSLAVSLGERATINCKSSQSLLNSANQKNYLAWYQQKPGQPPKLLIYFASTRESGVPDRFSGSGSGTDFTLTISSLQAEDVAVYYCQSHYPFYYTFGGGTKVEIK
As for B5, the binding entry in test [1] and in test [2] was “binds” throughout.

B6: He17/L16 (antibody, IgG4, V domains shown)
VH: EVQLLESGGGLVQPGGSLRLSCAASGFSFSDYYLYWVRQAPGKGLEWVATISVGGGQTSYADSVKGRFTISRDNSKNTLYLQMNSLRAEDTAMYYCTRARTYGPAWFAYWGQGTLVTVSS
VL: DIVMTQSPDSLAVSLGERATINCKSSQSLLNSANQKNYLAWYQQKPGQPPKLLIYFASTRESGVPDRFSGSGSGTDFTLTISSLQAEDVAVYYCQSHYPYPFTFGGGTKVEIK
With B6, the binding result in test [1] is “binds”.

B7: He3/L20 (antibody, IgG4, V domains shown)
VH: EVQLLESGGGLVQPGGSLRLSCAASGFSFSDYYLYWVRQAPGKGLEWVATISVGGGQTSYADSVKGRFTISRDNSKNTLYLQMNSLRAEDTAMYYCTRALTYGPAWLAYWGQGTLVTVSS
VL: DIVMTQSPDSLAVSLGERATINCKSSQSLLNSANQKNYLAWYQQKPGQPPKLLIYFASTRESGVPDRFSGSGSGTDFTLTISSLQAEDVAVYYCQSHFPYPLTFGGGTKVEIK
On to B7, for which the binding entry in test [1] and in test [2] was “binds” throughout.

B8: He13/L17 (antibody, IgG4, V domains shown)
VH: EVQLLESGGGLVQPGGSLRLSCAASGFSFSDYYLYWVRQAPGKGLEWVATISVGGGQTSYADSVKGRFTISRDNSKNTLYLQMNSLRAEDTAMYYCTRGLYYGPSWLAYWGQGTLVTVSS
VL: DIVMTQSPDSLAVSLGERATINCKSSQSLLNSANQKNYLAWYQQKPGQPPKLLIYFASTRESGVPDRFSGSGSGTDFTLTISSLQAEDVAVYYCQSHYPYPYTFGGGTKVEIK
With B8, the binding result in test [4] was “binds”.

B9: Parent VH/L18 (antibody, IgG4, V domains shown)
VH: EVQLLESGGGLVQPGGSLRLSCAASGFSFSDYYLYWVRQAPGKGLEWVATISVGGGQTSYADSVKGRFTISRDNSKNTLYLQMNSLRAEDTAMYYCTRGLYYGPAWFAYWGQGTLVTVSS
VL: DIVMTQSPDSLAVSLGERATINCKSSQSLLNSANQKNYLAWYQQKPGQPPKLLIYFASTRESGVPDRFSGSGSGTDFTLTISSLQAEDVAVYYCQSHFPYPFTFGGGTKVEIK
Turning to B9, in test [1], the binding entry is given as “binds”.

B10: He4/L16 (antibody, IgG4, V domains shown)
VH: EVQLLESGGGLVQPGGSLRLSCAASGFSFSDYYLYWVRQAPGKGLEWVATISVGGGQTSYADSVKGRFTISRDNSKNTLYLQMNSLRAEDTAMYYCTRALYYGPAWFAYWGQGTLVTVSS
VL: DIVMTQSPDSLAVSLGERATINCKSSQSLLNSANQKNYLAWYQQKPGQPPKLLIYFASTRESGVPDRFSGSGSGTDFTLTISSLQAEDVAVYYCQSHYPYPFTFGGGTKVEIK
B10: the binding result in test [1] was “binds”.

B11: He9/L4#2 (antibody, IgG4, V domains shown)
VH: EVQLLESGGGLVQPGGSLRLSCAASGFSFSDYYLYWVRQAPGKGLEWVATISVGGGQTSYADSVKGRFTISRDNSKNTLYLQMNSLRAEDTAMYYCARAMYYGPAWFAYWGQGTLVTVSS
VL: DIVMTQSPDSLAVSLGERATINCKSSQSLLNSANQKNYLAWYQQKPGQPPKLLIYFASTRESGVPDRFSGSGSGTDFTLTISSLQAEDVAVYYCQSHYPYPYTFGGGTKVEIK
With B11, the binding result in test [1] is reported as “binds”; in test [5], “no binding (tested: 1.67 µg/mL)”; in test [6] it was “no binding (tested: 25 nM to 200 nM)”.

B12: He14/L1 (antibody, IgG4, V domains shown)
VH: EVQLLESGGGLVQPGGSLRLSCAASGFSFSDYYLYWVRQAPGKGLEWVATISVGGGQTSYADSVKGRFTISRDNSKNTLYLQMNSLRAEDTAMYYCTRGLYYGPSWVAYWGQGTLVTVSS
VL: DIVMTQSPDSLAVSLGERATINCKSSQSLLNSANQKNYLAWYQQKPGQPPKLLIYFASTRESGVPDRFSGSGSGTDFTLTISSLQAEDVAVYYCQSHYPFYYTFGGGTKVEIK
Turning to B12, the binding result in test [1] and in test [2] was “binds” in each case.

B13: He9/L3 (antibody, IgG4, V domains shown)
VH: EVQLLESGGGLVQPGGSLRLSCAASGFSFSDYYLYWVRQAPGKGLEWVATISVGGGQTSYADSVKGRFTISRDNSKNTLYLQMNSLRAEDTAMYYCARAMYYGPAWFAYWGQGTLVTVSS
VL: DIVMTQSPDSLAVSLGERATINCKSSQSLLNSANQKNYLAWYQQKPGQPPKLLIYFASTRESGVPDRFSGSGSGTDFTLTISSLQAEDVAVYYCQSHFPFPFTFGGGTKVEIK
With B13, the binding result in test [1] was “binds”.

B14: Parent VH/L4#2 (antibody, IgG4, V domains shown)
VH: EVQLLESGGGLVQPGGSLRLSCAASGFSFSDYYLYWVRQAPGKGLEWVATISVGGGQTSYADSVKGRFTISRDNSKNTLYLQMNSLRAEDTAMYYCTRGLYYGPAWFAYWGQGTLVTVSS
VL: DIVMTQSPDSLAVSLGERATINCKSSQSLLNSANQKNYLAWYQQKPGQPPKLLIYFASTRESGVPDRFSGSGSGTDFTLTISSLQAEDVAVYYCQSHYPYPYTFGGGTKVEIK
For B14, the binding entry in test [1] is recorded as “binds”.

Source of the values: patent US20250388666A1.
